Here are results for 35 targets from the supplement of paper PMC12067093, “Discovery and optimisation of a covalent ligand for TRIM25 and its application to targeted protein ubiquitination” (Chemical Science, 2025).

Sequences of proteins named here, by UniProt entry; tags and fusion partners are left off. A change or cut given only in a name is not applied to a line headed by its entry.
UniProt Q9NVV4: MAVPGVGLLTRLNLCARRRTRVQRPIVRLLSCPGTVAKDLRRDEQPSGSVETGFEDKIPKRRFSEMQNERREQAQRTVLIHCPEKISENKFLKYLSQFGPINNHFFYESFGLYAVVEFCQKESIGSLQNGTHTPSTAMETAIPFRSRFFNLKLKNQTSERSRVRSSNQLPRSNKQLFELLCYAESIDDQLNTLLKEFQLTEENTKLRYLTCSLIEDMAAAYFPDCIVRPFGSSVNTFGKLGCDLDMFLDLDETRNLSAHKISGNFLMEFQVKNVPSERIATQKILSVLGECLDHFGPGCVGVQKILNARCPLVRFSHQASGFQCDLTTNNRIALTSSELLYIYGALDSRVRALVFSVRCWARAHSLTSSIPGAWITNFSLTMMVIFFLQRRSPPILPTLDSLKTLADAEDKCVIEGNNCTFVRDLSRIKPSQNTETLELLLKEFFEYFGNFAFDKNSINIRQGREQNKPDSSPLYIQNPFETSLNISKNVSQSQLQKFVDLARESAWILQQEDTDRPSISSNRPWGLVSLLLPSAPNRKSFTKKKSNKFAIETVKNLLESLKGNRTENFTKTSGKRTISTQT
UniProt Q9Y6C9: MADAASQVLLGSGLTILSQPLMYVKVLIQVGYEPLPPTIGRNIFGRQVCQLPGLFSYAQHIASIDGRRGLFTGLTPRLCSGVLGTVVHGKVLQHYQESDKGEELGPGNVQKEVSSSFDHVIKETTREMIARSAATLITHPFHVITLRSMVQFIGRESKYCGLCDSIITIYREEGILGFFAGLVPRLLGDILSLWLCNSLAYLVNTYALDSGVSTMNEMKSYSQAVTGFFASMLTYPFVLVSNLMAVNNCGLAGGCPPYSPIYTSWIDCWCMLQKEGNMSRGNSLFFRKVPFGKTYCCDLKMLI
UniProt P11586, whole entry, looked up: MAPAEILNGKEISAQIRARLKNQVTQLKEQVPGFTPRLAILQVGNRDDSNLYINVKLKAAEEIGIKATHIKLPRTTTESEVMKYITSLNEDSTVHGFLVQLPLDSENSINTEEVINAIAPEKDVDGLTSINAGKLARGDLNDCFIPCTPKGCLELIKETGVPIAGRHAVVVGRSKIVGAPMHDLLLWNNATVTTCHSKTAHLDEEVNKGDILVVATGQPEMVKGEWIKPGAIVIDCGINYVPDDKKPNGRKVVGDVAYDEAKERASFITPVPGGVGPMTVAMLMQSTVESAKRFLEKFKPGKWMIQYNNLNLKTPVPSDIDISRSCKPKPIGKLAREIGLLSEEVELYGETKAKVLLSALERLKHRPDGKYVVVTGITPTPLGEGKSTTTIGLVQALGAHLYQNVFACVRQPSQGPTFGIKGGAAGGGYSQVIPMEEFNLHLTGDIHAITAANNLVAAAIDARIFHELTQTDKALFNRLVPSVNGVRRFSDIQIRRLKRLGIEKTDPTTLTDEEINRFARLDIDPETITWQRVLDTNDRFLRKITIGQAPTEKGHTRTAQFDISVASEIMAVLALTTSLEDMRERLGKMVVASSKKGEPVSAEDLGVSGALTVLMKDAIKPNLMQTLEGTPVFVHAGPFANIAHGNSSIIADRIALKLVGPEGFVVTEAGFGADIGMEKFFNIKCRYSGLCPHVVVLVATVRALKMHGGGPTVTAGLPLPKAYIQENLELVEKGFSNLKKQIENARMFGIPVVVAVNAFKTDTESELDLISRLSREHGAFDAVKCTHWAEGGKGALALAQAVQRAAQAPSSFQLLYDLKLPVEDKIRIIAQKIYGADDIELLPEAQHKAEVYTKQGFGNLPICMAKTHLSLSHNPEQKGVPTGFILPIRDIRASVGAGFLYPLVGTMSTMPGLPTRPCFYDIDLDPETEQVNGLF
UniProt Q6UB35, whole entry, looked up: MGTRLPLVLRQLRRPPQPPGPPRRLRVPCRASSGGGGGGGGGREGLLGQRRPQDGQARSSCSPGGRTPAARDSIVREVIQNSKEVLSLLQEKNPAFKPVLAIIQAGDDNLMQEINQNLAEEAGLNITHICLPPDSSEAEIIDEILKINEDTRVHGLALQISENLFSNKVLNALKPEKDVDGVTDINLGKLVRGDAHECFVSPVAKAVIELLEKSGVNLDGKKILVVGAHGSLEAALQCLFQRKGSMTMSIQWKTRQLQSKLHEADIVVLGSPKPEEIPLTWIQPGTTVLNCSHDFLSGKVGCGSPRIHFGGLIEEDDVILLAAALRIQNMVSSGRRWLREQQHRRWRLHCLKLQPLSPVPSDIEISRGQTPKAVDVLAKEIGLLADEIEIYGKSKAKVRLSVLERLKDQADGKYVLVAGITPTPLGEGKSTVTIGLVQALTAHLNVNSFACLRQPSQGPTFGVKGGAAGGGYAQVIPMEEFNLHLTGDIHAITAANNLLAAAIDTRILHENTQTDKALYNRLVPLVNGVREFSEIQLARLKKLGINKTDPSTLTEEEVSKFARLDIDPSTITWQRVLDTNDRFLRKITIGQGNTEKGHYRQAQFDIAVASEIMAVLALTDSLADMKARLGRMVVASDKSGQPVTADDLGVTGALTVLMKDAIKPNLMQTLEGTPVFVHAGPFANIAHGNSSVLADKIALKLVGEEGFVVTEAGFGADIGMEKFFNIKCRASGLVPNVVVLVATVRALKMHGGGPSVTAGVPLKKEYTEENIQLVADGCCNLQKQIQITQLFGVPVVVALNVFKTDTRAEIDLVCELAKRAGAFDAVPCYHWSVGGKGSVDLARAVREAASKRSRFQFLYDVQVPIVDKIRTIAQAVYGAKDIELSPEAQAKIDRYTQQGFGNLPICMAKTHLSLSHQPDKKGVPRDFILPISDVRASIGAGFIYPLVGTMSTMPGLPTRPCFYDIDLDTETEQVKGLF
UniProt P35579, whole entry, looked up: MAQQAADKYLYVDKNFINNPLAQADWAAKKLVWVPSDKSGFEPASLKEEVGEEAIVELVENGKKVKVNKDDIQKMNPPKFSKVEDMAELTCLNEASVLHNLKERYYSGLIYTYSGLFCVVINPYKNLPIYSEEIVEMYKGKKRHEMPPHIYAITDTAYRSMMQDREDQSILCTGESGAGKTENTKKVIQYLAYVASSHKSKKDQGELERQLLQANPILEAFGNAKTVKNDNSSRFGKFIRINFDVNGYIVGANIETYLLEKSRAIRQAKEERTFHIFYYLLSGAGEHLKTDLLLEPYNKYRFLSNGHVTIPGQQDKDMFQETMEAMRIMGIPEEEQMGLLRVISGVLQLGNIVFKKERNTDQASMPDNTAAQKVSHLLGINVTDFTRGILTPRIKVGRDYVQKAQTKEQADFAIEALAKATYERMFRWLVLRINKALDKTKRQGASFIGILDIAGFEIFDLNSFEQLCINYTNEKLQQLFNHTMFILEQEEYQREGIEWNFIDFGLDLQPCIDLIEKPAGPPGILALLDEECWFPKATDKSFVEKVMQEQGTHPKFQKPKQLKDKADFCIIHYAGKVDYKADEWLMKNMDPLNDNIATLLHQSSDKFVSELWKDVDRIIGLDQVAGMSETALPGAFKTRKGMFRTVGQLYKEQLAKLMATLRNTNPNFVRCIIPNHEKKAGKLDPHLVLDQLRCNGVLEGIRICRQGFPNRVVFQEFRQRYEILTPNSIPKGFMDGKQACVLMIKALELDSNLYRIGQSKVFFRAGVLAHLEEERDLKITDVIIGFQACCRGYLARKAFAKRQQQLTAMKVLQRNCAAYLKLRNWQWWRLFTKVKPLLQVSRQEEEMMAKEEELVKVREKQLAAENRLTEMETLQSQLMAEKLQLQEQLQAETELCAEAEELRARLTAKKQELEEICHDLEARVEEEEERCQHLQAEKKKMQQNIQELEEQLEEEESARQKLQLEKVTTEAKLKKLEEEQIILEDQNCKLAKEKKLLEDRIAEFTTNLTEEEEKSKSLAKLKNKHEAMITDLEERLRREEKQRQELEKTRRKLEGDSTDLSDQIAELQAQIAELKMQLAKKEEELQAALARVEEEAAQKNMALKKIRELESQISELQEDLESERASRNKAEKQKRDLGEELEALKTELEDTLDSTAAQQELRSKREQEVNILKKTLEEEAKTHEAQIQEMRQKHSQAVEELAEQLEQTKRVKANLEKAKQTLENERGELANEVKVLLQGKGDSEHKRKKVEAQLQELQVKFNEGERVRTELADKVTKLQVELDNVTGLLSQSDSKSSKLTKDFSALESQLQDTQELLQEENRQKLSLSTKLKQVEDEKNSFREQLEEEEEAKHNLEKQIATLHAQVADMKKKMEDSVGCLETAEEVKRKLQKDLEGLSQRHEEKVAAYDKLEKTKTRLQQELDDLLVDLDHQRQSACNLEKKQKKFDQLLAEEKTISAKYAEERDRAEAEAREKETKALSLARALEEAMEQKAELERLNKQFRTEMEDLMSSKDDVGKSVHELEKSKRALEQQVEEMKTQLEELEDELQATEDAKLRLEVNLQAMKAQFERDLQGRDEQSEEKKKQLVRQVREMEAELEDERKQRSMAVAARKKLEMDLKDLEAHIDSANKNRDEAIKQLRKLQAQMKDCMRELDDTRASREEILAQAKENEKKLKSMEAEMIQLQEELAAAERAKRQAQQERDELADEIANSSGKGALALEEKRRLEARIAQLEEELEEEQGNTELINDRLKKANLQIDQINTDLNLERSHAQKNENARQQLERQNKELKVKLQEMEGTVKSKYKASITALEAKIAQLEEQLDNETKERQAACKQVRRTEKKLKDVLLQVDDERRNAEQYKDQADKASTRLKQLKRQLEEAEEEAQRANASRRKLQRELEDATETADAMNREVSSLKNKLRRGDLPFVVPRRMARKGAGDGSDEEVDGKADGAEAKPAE
UniProt Q9UJ68: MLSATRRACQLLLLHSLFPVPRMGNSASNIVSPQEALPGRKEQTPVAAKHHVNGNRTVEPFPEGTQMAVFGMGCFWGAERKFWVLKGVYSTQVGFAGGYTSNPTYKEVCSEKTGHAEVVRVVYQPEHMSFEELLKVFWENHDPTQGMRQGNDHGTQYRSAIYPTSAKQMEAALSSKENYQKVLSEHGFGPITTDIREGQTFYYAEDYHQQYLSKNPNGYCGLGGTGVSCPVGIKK
UniProt P58546, whole entry, looked up: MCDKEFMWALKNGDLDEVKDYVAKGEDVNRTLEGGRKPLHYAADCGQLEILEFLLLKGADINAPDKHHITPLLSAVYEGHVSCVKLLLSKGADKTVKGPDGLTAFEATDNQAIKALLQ
UniProt Q9BQG0: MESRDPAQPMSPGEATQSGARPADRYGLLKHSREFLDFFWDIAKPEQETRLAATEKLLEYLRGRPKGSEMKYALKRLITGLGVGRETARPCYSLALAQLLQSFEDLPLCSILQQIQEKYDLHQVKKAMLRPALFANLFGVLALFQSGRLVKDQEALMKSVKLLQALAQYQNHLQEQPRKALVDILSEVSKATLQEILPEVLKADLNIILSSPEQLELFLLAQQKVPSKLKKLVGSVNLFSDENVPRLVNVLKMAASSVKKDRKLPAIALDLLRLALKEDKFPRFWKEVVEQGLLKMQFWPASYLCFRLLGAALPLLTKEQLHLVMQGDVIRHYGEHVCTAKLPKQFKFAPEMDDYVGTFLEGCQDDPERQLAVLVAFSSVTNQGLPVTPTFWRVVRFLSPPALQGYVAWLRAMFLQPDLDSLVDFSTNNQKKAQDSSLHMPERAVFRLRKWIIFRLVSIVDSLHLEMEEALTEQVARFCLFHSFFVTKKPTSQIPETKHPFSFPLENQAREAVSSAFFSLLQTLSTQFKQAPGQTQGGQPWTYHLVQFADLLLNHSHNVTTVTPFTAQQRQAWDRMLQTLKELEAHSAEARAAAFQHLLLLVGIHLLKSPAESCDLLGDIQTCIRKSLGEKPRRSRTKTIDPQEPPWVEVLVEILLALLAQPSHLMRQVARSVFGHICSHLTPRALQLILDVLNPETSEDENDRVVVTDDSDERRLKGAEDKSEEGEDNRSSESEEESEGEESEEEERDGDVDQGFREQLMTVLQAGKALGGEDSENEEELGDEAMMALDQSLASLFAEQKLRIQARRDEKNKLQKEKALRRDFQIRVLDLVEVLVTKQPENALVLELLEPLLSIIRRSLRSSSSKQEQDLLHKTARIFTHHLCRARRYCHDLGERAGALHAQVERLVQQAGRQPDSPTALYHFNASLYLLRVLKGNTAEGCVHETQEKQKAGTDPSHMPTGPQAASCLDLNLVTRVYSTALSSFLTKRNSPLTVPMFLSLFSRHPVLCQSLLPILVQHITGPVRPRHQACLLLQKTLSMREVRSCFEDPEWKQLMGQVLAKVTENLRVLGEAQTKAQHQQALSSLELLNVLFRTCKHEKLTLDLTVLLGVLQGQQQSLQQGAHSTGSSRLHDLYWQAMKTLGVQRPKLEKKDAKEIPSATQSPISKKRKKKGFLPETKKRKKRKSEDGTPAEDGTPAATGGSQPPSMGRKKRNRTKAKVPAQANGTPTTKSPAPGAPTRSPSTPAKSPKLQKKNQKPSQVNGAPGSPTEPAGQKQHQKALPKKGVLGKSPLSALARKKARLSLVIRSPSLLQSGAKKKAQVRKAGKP

Some of the results follow.

Compound in this assay: CC1Cc2ccccc2N1C(=O)C1CCCN(C1)C(=O)CCl (mixture of isomers) [TRIM25 ligand 11 (diastereomer mixture)]
The assay can be described thus: probe-labelled cysteine peptide fold change vs DMSO (competition) (log2 fold change); higher = less target engagement (more negative = stronger competition). The following applies: THP-1, incubation time: 4 h.
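Further: competitive chemoproteomic profiling in live THP-1 cells with an iodoacetamide desthiobiotin (IA-DTB) probe, comparing probe-labelled peptide intensities in compound-treated cells against DMSO-treated controls.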

In the case of “MRPL53_Q96EL3_21_VQFCPFEK (UniProt Q96EL3)”, the “probe-labelled cysteine peptide fold change” value (10 µM) is -0.0813 and the “probe-labelled cysteine peptide fold change” value (50 µM) was found to be 0.0271.

As for “MRPS2_Q9Y399_162_DCGEYAHTR (UniProt Q9Y399)”, the “probe-labelled cysteine peptide fold change” value is, setting by setting: (10 µM) 0.0375; (50 µM) 0.263.

Regarding “MSL1_Q68DK7_125_QAGIGGEPAAAGAGCSPR (UniProt Q68DK7)”, the “probe-labelled cysteine peptide fold change” value (10 µM) was determined as 0.0866 and the “probe-labelled cysteine peptide fold change” value (50 µM) was -0.0946.

Consider MTF2_Q9Y483_220_MLQCCK (UniProt Q9Y483), for which the “probe-labelled cysteine peptide fold change” value reads like this: (10 µM) -0.0557; (50 µM) -0.0499.

For the target “MTPAP_Q9NVV4_412+419_CVIEGNNCTFVR (UniProt Q9NVV4)”, the “probe-labelled cysteine peptide fold change” value runs as follows: (10 µM) -0.138; (50 µM) -0.0777.

On to “MS4A6A_Q9H2W1_240_MTHDCGYEELLTS (UniProt Q9H2W1)”, for which the “probe-labelled cysteine peptide fold change” value is, setting by setting: (10 µM) 0.184; (50 µM) -0.206.

For “MTA2_O94776_261_AMSTLVPQGGPVLCRDEMEEWSASEAMLFEEALEK (UniProt O94776)”, the “probe-labelled cysteine peptide fold change” value is, setting by setting: (10 µM) -0.0936; (50 µM) -0.0272.

With “MTCH2_Q9Y6C9_49_QVCQLPGLFSYAQHIASIDGRR (UniProt Q9Y6C9)”, the “probe-labelled cysteine peptide fold change” value (10 µM) was -0.283 and the “probe-labelled cysteine peptide fold change” value (50 µM) is -0.233.

Turning to “MTHFD1_P11586_408_STTTIGLVQALGAHLYQNVFACVR (UniProt P11586)”, the “probe-labelled cysteine peptide fold change” value is -0.373 (10 µM) and -0.246 (50 µM).

For the target “MRPS28_Q9Y2Q9_124_FHCVCR (UniProt Q9Y2Q9)”, the “probe-labelled cysteine peptide fold change” value reads like this: (10 µM) 0.00221; (50 µM) 0.0165.

With “MYCBP2_O75592_4318_QVFKEEEEAIKVDLHEGCGR (UniProt O75592)”, the “probe-labelled cysteine peptide fold change” value was -0.114 (10 µM) and -0.119 (50 µM).

On to “MTIF2_P46199_646_KKVPVAGCR (UniProt P46199)”, for which the “probe-labelled cysteine peptide fold change” value reads like this: (10 µM) -0.131; (50 µM) 0.0545.

On to “MTHFD1L_Q6UB35_906_YTQQGFGNLPICMAK (UniProt Q6UB35)”, for which the “probe-labelled cysteine peptide fold change” value is, setting by setting: (10 µM) 0.0783; (50 µM) 0.0417.

For “MUS81_Q96NY9_74_ILQHFGDGLCR (UniProt Q96NY9)”, the “probe-labelled cysteine peptide fold change” value (10 µM) is -0.0267 and the “probe-labelled cysteine peptide fold change” value (50 µM) is -0.0348.

As for “MSL3P1_P0C860_283_SSPHTANCDR (UniProt P0C860)”, the “probe-labelled cysteine peptide fold change” value (10 µM) came to 0.0299 and the “probe-labelled cysteine peptide fold change” value (50 µM) is -0.16.

As for “MYCBP2_O75592_4393_THPCGHPCGGVK (UniProt O75592)”, the “probe-labelled cysteine peptide fold change” value is -0.0685 (10 µM) and -0.0531 (50 µM).

As to “MSH3_P20585_274_ELNIYCHLDHNFMTASIPTHR (UniProt P20585)”, the “probe-labelled cysteine peptide fold change” value is -0.0413 (10 µM) and 0.119 (50 µM).

For the target “MTHFD2_P13995_145_ICNAVSPDK (UniProt P13995)”, the “probe-labelled cysteine peptide fold change” value runs as follows: (10 µM) -0.072; (50 µM) 0.0639.

As for “MTO1_Q9Y2Z2_707_TDQYLCDADR (UniProt Q9Y2Z2)”, the “probe-labelled cysteine peptide fold change” value was -0.063 (10 µM) and -0.152 (50 µM).

As for “MYH9_P35579_790_ITDVIIGFQACCR (UniProt P35579)”, the “probe-labelled cysteine peptide fold change” value worked out at 0.00716 (10 µM) and 0.0409 (50 µM).

Turning to “MRPS11_P82912_186_LSAMHGLIMGGLEVISITDNTPIPHNGCRPR (UniProt P82912)”, the “probe-labelled cysteine peptide fold change” value reads like this: (10 µM) 0.338; (50 µM) 0.321.

Take “MTHFD1L_Q6UB35_778+779_EYTEENIQLVADGCCNLQK (UniProt Q6UB35)”: the “probe-labelled cysteine peptide fold change” value (10 µM) is 0.103 and the “probe-labelled cysteine peptide fold change” value (50 µM) is -0.0967.

“MSRA_Q9UJ68_74_TVEPFPEGTQMAVFGMGCFWGAER (UniProt Q9UJ68)”: the “probe-labelled cysteine peptide fold change” value by setting is: (10 µM) 0.122; (50 µM) 0.22.

As for “MRRF_Q96E11_154_SPQLILVNMASFPECTAAAIK (UniProt Q96E11)”, the “probe-labelled cysteine peptide fold change” value (10 µM) is -0.379 and the “probe-labelled cysteine peptide fold change” value (50 µM) is -0.279.

With “MVB12B_Q9H7P6_267_FSCVPESMQPFDLLGITIK (UniProt Q9H7P6)”, the “probe-labelled cysteine peptide fold change” value was -0.551 (10 µM) and -0.201 (50 µM).

In the case of “MUT_P22033_560_CTVGEITDALK (UniProt P22033)”, the “probe-labelled cysteine peptide fold change” value was -0.164 (10 µM) and 0.0877 (50 µM).

On to “MTPN_P58546_45_KPLHYAADCGQLEILEFLLLK (UniProt P58546)”, for which the “probe-labelled cysteine peptide fold change” value runs as follows: (10 µM) 0.0367; (50 µM) 0.0551.

As to “MYBBP1A_Q9BQG0_678_SVFGHICSHLTPR (UniProt Q9BQG0)”, the “probe-labelled cysteine peptide fold change” value by setting is: (10 µM) 0.13; (50 µM) -0.106.

For the target “MTA3_Q9BTC8_532_KPLACIIGYLEIHPAK (UniProt Q9BTC8)”, the “probe-labelled cysteine peptide fold change” value was -0.247 (10 µM) and -0.124 (50 µM).

“MTHFD1_P11586_863_QGFGNLPICMAK (UniProt P11586)”: the “probe-labelled cysteine peptide fold change” value was -0.00775 (10 µM) and -0.195 (50 µM).

Take “MTMR2_Q13614_155_GENSYGLETVCK (UniProt Q13614)”: the “probe-labelled cysteine peptide fold change” value (10 µM) is 0.0206 and the “probe-labelled cysteine peptide fold change” value (50 µM) is -0.109.

Regarding “MRPS30_Q9NP92_293_TADPCCYGHTQFHLLPDK (UniProt Q9NP92)”, the “probe-labelled cysteine peptide fold change” value runs as follows: (10 µM) 0.126; (50 µM) 0.12.

With “MTCH2_Q9Y6C9_79_LCSGVLGTVVHGK (UniProt Q9Y6C9)”, the “probe-labelled cysteine peptide fold change” value was 0.0436 (10 µM) and -0.0296 (50 µM).

On to “MYH9_P35579_1437_QSACNLEK (UniProt P35579)”, for which the “probe-labelled cysteine peptide fold change” value by setting is: (10 µM) -0.00871; (50 µM) -0.0988.

As to “MTOR_P42345_2243_YAVIPLSTNSGLIGWVPHCDTLHALIR (UniProt P42345)”, the “probe-labelled cysteine peptide fold change” value is, setting by setting: (10 µM) -0.16; (50 µM) -0.0117.
